{"source": "PubChem BioAssay AID1259415", "about": "(National Center for Advancing Translational Sciences (NCATS), 2018)", "note": "Values joined by “and” are separate entries in the source; they are usually repeats but may differ in a detail not shown here. Identical values can stand only once. Hit rate of the full screen: of about 410,000 compounds, about 18,000 (4.4%) were called active. The shares of active, inactive and inconclusive entries below differ from those in the screen. Cut-off read from the data, not from the text of the source: active = activity change below about -60%; inconclusive = no clear call, values can overlap the other calls; inactive = above about -39%. % is set by controls: 0 for no effect and ±100 for the full control effect."}
{"experiment": "qHTS Assay for inhibitors of the human cytomegalovirus (HCMV)", "conditions": "HFF cells, HCMV-luciferase reporter, 72 h; at 57.5 µM; hits give low values", "how_it_was_run": "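Cell-based, HFFs, 1000 cells/well, 16 h 37C; cpds in DMSO + HCMV-luc, MOI 1 PFU/cell; 72 h 37C; OneGlo luminescence after 5 min RT; norm. to buffer vs Salinomycin 10uM.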"}
{"smiles": "COc1ccc2cc(C(N)=O)c(=Nc3ccc(C)cc3)oc2c1", "activity change, negative = inhibition": "active: -83.1%"}
{"smiles": "COc1ccc(-c2cc(C(=O)N3CCCCCC3)no2)cc1OC", "activity change, negative = inhibition": "inactive: 39.1%"}
{"smiles": "O=C(C1CCCN(c2ncnc3c2nc2n3CCCCC2)C1)N1CCN(c2cccc(Cl)c2)CC1", "note": "(stereo not given)", "activity change, negative = inhibition": "inactive: -28.9%"}
{"smiles": "Cc1ccc(S(=O)(=O)N2CCCC2=O)c(C)c1N(C)S(C)(=O)=O", "activity change, negative = inhibition": "inactive: 6.25%"}
{"smiles": "O=C(NCc1cc(C(F)(F)F)ccc1F)C1CCC(=O)N(C2CCCCCC2)C1", "note": "(stereo not given)", "activity change, negative = inhibition": "inactive: 1.29%"}
{"smiles": "COc1ccc(C(=O)Nc2cc(OC)ccc2OC)cc1", "activity change, negative = inhibition": "inactive: 15.5%"}
{"smiles": "CC[C@H]1Nc2ccc(NC(=O)OC(C)(C)C)cc2[C@@H](NC(=O)OCc2ccccc2)[C@@H]1C", "activity change, negative = inhibition": "inactive: 30.6%"}
{"smiles": "CC(=O)N1c2ccc(S(=O)(=O)N(C)c3cc(C)ccc3C)cc2CC1C", "note": "(stereo not given)", "activity change, negative = inhibition": "inconclusive: -59.4%"}
{"smiles": "CCc1ccc(C(=O)NNc2cc(Cl)ccc2Cl)cc1", "activity change, negative = inhibition": "active: -68.1%"}
{"smiles": "CCCOc1cccc(NC(=O)c2cc(C)oc2C)c1", "activity change, negative = inhibition": "inconclusive: -45%"}
{"smiles": "Cc1ccc(OCCCCn2ccnc2C)c(C)c1", "activity change, negative = inhibition": "inconclusive: -43.3%"}
{"smiles": "O=C(NCC(NS(=O)(=O)OCC(Cl)(Cl)Cl)c1ccccc1)C(F)(F)F", "note": "(stereo not given)", "activity change, negative = inhibition": "active: -74.5%"}
{"smiles": "CC(=O)Oc1cccc(NC(=O)c2ccc3c(c2)C(=O)N(CC(C)C)C3=O)c1", "activity change, negative = inhibition": "inconclusive: -46.6%"}
{"smiles": "COc1ccc(CCNC(=O)c2ccc3c(c2)N(Cc2ccccc2F)C(=O)c2ccccc2S3(=O)=O)cc1OC", "activity change, negative = inhibition": "inconclusive: -48.9%"}
{"smiles": "O=C(NNc1ccc([N+](=O)[O-])cc1[N+](=O)[O-])C1C2CCCCC21", "note": "(stereo not given)", "activity change, negative = inhibition": "inconclusive: -52.8%"}
{"smiles": "COc1ccc(NC(=O)CSCC(=O)N(C)Cc2c(F)cccc2Cl)cc1", "activity change, negative = inhibition": "inconclusive: -41.1%"}
{"smiles": "CC(C)OC(=O)c1cccc(NC(=O)c2ccccc2)c1", "activity change, negative = inhibition": "inconclusive: -59.8%"}
{"smiles": "O=C(NCCc1ccccc1)c1cc(S(=O)(=O)N2CCCCC2)c[nH]1", "activity change, negative = inhibition": "inconclusive: -46.9%"}
{"smiles": "CN(C)S(=O)(=O)c1cccc(NC(=O)COC(=O)c2ccc(Br)o2)c1", "activity change, negative = inhibition": "inactive: 25.7%"}
{"smiles": "O=C(CSc1nc(C2CC2)nc2ccccc12)N1c2ccccc2Sc2ccc(C(F)(F)F)cc21", "activity change, negative = inhibition": "inconclusive: -40.8%"}
{"smiles": "COc1cccc(C2NC(=O)CCC2[N+](=O)[O-])c1OC", "note": "(stereo not given)", "activity change, negative = inhibition": "inactive: -33.9%"}
{"smiles": "O=C(CCN1N=C(c2ccccc2)CCC1=O)NCCc1ccc(Cl)cc1", "activity change, negative = inhibition": "inconclusive: -41.8%"}
{"smiles": "Cc1ccc(NC(=Nc2ccc(Br)cc2)N2CCOCC2)cc1C", "activity change, negative = inhibition": "inconclusive: -55.5%"}
{"smiles": "CN(C)Cc1c(C(=O)Nc2ccccc2)[nH]c2ccccc12", "activity change, negative = inhibition": "inactive: 16.2%"}
{"smiles": "COc1ccc(S(=O)(=O)N(C)c2ccc(C(=O)Nc3ccccc3C(=O)N3CCOCC3)cc2)cc1OC", "activity change, negative = inhibition": "inconclusive: -47.7%"}
{"smiles": "CCc1ccc(C(=O)c2cn(CC(=O)Nc3ccc(OC)c(OC)c3)c3ccc(C)cc3c2=O)cc1", "activity change, negative = inhibition": "inconclusive: -40.3%"}
{"smiles": "COc1ccc(NC(=O)Nc2ccc(F)c(F)c2)c(OC)c1", "activity change, negative = inhibition": "inconclusive: -48.7%"}
{"smiles": "Cc1cc(C)c(OCCNC(=O)c2ccccc2Sc2ccccc2C#N)c(C)c1", "activity change, negative = inhibition": "inconclusive: -51.4%"}
{"smiles": "Cc1nc2ccccn2c1-c1ccnn1S(=O)(=O)c1ccc(F)cc1", "activity change, negative = inhibition": "active: -94.3%"}
{"smiles": "COc1ccc(/C=C2\\C(=O)ON=C2c2ccccc2)cc1", "activity change, negative = inhibition": "inactive: 0.28%"}
{"smiles": "O=C(c1[nH]c(C(F)(F)F)nc1-c1ccccc1)N1CCN(c2ccccc2)CC1", "activity change, negative = inhibition": "inconclusive: -54.6%"}
{"smiles": "N#C/C(=C\\c1ccc([N+](=O)[O-])cc1)c1ccccn1", "activity change, negative = inhibition": "active: -74.6%"}
{"smiles": "CCN(CC)c1cc(C)c2cc(NC(=O)c3ccccc3OC)ccc2n1", "activity change, negative = inhibition": "active: -67.5% and active: -60.2%"}
{"smiles": "CCN(C(=O)CN1CCCCCC1)c1c(N)n(Cc2ccccc2)c(=O)[nH]c1=O", "activity change, negative = inhibition": "inconclusive: -43.7%"}
{"smiles": "O=C(NCCc1ccccc1)c1c(F)c(F)c(F)c(F)c1F", "activity change, negative = inhibition": "inconclusive: -41.4%"}
{"smiles": "O=S(=O)(c1ccc(C(F)(F)F)cc1)N1CCCc2nc(-c3ccc(Br)cc3)ccc21", "activity change, negative = inhibition": "inconclusive: -52%"}
{"smiles": "NNc1nc2cccnc2n(CCNc2ncc(C(F)(F)F)cc2Cl)c1=O", "activity change, negative = inhibition": "inconclusive: -51.6%"}
{"smiles": "CC1CCN(C(=O)CSc2nnc(CNc3ccc(F)cc3)n2Cc2ccco2)CC1", "activity change, negative = inhibition": "inconclusive: -55%"}
{"smiles": "CCS(=O)(=O)N1CCN(S(=O)(=O)c2ccccc2[N+](=O)[O-])CC1", "activity change, negative = inhibition": "inconclusive: -42.4%"}
{"smiles": "CCOC(=O)c1nn(-c2ccc(Cl)cc2)c(C)cc1=O", "activity change, negative = inhibition": "active: -73%"}
{"smiles": "CC(=O)Oc1ccc(-c2ccc(C(=O)OCC(=O)c3c(N)n(C)c(=O)n(C)c3=O)cc2)cc1", "activity change, negative = inhibition": "active: -62.1%"}
{"smiles": "CN(CC(=O)Nc1ccc(Cl)cc1)C(=O)c1cccc(S(=O)(=O)N2CCN(Cc3ccccc3)CC2)c1", "activity change, negative = inhibition": "active: -72.8%"}
{"smiles": "Cc1ccc(C(C)(C)C)c(OCCCn2ccnc2)c1", "activity change, negative = inhibition": "inactive: 3.35%"}
{"smiles": "CCOC(=O)C1(C)CCCN1C(=O)c1ccccc1F", "note": "(stereo not given)", "activity change, negative = inhibition": "inactive: -6.39%"}
{"smiles": "C(=C\\c1ccccc1)/CN1CCN(C(c2ccccc2)c2ccccc2)CC1", "activity change, negative = inhibition": "inconclusive: -54.1%"}
{"smiles": "COc1ccc(C(=O)N2CCCC2=O)cc1", "activity change, negative = inhibition": "inconclusive: -52.2%"}
{"smiles": "CCc1nc(N)nc(N)c1-c1ccc(N(C)Cc2ccccc2)c([N+](=O)[O-])c1", "activity change, negative = inhibition": "active: -97.2%"}
{"smiles": "O=C(NCCc1c[nH]c2ccccc12)C(=O)Nc1cc2c3c(c1)CC(=O)N3CCC2", "activity change, negative = inhibition": "inactive: -18.1%"}
{"smiles": "Cc1ccccc1OCCCCCn1ccnc1", "activity change, negative = inhibition": "inconclusive: -42.5%"}
{"smiles": "O=C(NCc1ccco1)c1ccc2c(c1)N(Cc1cccc(Cl)c1)C(=O)c1ccccc1S2(=O)=O", "activity change, negative = inhibition": "inconclusive: -52.9%"}
{"smiles": "COc1ccc(CCNc2ncnc3c2cnn3-c2ccc(C)cc2)cc1", "activity change, negative = inhibition": "inactive: -8.18%"}
{"smiles": "CN1C(=O)c2ccccc2Sc2ccc(NC(=O)COc3ccc(F)cc3)cc21", "activity change, negative = inhibition": "inconclusive: -41.3%"}
{"smiles": "O=S(=O)(c1ccccc1)N1CCN(C(=S)NCCc2ccccc2)CC1", "activity change, negative = inhibition": "active: -72.3%"}
{"smiles": "COc1ccc([C@H]2CC(=O)C=C(c3ccc4c(c3)OCO4)C2)cc1", "activity change, negative = inhibition": "inconclusive: -44.9%"}
{"smiles": "CC(=O)N1CCc2c(sc(NC(=O)CN3C(=O)c4ccccc4C3=O)c2C(N)=O)C1", "activity change, negative = inhibition": "inconclusive: -49%"}
